Assay results from the supplement of paper PMC10849652.
The other results are listed elsewhere or left out.

By UniProt entry, the sequences of proteins in these tests, tags left out. Where a name states a change or a piece, a line headed by the entry shows the natural chain unless it says otherwise.
UniProt Q12874: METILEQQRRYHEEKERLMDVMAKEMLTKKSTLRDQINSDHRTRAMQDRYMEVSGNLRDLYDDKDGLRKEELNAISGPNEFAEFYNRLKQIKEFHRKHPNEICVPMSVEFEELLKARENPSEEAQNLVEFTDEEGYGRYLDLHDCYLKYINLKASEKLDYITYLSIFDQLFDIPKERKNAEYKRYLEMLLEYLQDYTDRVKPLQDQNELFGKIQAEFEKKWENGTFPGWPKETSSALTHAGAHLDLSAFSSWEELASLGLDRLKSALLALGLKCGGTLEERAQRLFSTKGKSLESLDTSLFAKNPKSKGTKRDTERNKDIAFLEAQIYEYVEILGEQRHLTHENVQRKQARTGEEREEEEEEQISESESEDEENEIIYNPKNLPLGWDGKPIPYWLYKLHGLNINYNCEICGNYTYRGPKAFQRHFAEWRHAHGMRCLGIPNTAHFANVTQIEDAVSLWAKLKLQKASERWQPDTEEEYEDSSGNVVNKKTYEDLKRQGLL
UniProt Q9UGK8: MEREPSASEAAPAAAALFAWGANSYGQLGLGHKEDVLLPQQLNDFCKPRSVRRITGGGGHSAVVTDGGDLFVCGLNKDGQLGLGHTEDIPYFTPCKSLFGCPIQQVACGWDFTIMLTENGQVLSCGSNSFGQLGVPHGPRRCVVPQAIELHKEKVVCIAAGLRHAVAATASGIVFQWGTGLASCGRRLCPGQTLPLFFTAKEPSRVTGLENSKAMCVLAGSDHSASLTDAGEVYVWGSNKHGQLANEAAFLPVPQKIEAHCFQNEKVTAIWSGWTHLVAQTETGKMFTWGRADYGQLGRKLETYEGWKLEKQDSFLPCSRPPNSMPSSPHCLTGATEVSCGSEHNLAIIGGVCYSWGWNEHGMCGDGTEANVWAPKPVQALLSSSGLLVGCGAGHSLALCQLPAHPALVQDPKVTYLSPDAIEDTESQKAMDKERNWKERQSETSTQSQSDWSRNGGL
UniProt Q9BQE4, whole entry, looked up: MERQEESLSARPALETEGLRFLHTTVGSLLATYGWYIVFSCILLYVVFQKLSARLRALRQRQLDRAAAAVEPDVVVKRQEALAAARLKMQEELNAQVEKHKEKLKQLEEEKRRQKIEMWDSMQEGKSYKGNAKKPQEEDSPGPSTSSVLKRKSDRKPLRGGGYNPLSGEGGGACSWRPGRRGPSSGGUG
UniProt P34897: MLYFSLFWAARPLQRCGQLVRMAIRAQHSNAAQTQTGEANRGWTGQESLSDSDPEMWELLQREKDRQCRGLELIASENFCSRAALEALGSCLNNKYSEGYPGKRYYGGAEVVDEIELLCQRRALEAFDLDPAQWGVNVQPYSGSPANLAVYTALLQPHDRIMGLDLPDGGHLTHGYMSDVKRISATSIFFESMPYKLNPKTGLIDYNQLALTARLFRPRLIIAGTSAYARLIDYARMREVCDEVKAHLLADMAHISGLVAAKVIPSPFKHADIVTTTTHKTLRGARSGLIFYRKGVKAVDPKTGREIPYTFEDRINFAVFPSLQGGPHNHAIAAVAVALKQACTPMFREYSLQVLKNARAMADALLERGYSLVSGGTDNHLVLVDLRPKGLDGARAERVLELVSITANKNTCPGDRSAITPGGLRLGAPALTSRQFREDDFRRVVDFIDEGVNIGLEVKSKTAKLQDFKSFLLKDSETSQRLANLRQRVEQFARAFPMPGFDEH
UniProt P36955: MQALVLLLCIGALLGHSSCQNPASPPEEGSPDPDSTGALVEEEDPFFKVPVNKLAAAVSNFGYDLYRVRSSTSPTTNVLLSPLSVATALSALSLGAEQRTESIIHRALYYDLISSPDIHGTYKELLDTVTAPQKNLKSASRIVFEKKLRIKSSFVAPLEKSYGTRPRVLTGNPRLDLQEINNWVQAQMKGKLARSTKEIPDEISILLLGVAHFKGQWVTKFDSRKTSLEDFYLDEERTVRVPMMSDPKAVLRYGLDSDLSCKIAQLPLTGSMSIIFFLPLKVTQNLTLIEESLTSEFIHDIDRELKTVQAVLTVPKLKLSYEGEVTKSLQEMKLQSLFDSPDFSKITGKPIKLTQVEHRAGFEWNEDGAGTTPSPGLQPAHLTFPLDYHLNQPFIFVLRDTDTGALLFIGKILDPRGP
UniProt O43236: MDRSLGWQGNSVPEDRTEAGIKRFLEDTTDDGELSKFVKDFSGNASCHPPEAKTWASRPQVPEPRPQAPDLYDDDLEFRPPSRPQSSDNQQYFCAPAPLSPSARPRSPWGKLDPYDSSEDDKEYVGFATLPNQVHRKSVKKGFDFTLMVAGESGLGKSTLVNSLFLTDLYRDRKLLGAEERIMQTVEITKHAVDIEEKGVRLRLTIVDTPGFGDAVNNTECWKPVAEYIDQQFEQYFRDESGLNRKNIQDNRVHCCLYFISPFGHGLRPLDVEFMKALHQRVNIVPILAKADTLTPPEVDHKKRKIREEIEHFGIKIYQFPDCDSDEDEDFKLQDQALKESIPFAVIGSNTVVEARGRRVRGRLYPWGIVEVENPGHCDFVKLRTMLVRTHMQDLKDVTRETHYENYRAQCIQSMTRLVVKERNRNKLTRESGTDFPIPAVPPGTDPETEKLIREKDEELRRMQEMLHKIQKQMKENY
UniProt Q99611, whole entry, looked up: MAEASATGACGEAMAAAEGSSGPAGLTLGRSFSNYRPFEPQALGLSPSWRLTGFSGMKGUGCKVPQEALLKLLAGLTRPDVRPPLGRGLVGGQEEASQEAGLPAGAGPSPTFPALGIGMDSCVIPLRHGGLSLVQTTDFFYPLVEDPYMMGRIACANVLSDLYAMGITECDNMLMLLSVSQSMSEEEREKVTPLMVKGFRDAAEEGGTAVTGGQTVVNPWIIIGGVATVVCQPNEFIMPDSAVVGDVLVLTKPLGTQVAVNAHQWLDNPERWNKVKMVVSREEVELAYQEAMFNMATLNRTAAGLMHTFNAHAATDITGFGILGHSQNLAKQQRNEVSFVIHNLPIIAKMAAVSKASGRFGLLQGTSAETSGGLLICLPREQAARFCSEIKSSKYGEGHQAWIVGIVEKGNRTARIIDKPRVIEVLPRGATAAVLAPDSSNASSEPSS
UniProt Q8N6T7, whole entry, looked up: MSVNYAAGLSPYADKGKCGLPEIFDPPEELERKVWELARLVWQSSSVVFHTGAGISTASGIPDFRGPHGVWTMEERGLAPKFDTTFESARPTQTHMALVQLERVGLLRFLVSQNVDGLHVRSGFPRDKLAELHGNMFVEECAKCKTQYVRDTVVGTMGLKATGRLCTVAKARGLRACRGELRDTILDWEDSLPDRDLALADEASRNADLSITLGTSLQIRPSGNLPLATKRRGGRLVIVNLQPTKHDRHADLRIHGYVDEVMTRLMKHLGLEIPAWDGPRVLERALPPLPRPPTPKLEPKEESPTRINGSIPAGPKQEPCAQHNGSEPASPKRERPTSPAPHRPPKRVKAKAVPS
UniProt Q9BX95: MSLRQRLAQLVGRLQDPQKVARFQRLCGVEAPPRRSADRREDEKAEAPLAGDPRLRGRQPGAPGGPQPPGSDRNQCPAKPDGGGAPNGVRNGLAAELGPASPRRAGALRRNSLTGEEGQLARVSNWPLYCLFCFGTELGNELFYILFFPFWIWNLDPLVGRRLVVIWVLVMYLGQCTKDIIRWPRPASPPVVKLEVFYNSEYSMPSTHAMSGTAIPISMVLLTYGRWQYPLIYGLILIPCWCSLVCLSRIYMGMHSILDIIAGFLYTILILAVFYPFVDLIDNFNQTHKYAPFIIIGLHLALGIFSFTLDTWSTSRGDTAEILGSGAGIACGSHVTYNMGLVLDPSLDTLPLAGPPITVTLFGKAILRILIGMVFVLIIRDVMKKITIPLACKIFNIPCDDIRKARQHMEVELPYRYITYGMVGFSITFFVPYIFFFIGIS
UniProt Q9NXA8: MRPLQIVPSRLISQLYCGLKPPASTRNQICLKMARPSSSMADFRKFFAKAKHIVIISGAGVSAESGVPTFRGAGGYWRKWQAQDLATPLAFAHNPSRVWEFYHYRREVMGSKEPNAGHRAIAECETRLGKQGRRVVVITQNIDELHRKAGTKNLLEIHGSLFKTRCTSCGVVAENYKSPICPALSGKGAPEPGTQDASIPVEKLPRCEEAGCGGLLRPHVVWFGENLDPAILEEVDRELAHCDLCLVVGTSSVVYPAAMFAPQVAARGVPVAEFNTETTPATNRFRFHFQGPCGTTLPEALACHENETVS
UniProt Q8NBJ9: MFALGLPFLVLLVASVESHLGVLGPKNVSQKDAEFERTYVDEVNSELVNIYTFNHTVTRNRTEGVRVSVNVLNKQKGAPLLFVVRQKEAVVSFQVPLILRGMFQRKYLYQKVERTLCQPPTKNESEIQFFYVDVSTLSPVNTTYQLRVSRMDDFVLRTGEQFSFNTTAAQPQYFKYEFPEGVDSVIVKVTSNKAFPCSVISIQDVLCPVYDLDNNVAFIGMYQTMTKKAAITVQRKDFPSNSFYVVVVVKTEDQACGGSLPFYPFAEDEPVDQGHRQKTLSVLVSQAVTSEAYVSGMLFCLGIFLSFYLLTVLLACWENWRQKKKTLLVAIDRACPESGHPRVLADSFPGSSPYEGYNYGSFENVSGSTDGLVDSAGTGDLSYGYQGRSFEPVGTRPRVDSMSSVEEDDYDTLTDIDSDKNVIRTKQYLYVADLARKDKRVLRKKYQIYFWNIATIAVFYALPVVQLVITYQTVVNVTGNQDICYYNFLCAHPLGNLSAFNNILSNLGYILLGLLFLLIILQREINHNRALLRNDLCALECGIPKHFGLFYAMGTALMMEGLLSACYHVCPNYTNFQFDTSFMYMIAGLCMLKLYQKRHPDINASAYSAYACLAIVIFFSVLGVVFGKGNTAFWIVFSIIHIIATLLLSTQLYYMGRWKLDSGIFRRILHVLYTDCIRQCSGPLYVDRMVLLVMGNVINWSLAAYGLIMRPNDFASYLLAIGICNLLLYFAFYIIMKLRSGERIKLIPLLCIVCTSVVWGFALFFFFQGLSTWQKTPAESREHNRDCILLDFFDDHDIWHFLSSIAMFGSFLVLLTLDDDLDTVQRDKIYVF
UniProt Q8NEM2: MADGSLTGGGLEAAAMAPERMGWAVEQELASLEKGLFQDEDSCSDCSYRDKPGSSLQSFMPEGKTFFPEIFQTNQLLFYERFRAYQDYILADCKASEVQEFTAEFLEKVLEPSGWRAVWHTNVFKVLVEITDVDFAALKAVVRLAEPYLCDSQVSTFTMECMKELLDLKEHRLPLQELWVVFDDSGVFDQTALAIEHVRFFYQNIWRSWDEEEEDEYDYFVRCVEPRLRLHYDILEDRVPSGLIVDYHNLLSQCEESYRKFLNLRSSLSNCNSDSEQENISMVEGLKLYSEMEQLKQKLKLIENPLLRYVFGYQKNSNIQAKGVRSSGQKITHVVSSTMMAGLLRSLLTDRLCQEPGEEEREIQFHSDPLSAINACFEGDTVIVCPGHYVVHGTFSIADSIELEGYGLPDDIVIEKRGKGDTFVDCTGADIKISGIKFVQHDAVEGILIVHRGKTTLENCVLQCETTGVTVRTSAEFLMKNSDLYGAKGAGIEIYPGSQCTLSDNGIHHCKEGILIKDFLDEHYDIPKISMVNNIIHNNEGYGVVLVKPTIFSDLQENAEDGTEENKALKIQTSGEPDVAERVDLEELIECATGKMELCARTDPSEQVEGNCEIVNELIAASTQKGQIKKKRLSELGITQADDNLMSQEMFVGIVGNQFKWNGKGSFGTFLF
UniProt Q9NVA2: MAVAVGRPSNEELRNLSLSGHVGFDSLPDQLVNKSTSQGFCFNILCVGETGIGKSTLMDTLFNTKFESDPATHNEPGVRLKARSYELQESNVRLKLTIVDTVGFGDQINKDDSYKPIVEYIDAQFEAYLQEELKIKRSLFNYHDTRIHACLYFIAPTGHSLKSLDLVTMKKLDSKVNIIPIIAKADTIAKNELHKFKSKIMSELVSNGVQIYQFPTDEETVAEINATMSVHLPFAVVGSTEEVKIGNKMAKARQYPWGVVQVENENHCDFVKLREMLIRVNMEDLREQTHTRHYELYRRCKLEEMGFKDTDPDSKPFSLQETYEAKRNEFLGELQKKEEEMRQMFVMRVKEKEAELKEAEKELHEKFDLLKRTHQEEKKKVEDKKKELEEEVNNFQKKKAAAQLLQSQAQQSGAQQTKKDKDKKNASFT
UniProt P61619, whole entry, looked up: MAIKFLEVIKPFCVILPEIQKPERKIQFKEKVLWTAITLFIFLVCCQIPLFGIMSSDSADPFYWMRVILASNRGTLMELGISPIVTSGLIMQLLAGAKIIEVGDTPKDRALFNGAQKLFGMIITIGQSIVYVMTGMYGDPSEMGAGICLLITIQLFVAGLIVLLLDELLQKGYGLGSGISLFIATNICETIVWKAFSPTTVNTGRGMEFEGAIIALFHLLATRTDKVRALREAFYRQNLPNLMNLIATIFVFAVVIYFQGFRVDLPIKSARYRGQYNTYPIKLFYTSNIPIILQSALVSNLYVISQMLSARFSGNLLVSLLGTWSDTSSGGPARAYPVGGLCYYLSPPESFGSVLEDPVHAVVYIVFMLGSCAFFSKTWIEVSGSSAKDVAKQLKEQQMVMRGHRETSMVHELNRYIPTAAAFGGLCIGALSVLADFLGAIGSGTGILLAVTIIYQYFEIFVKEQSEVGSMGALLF

Tests used:
Test in all cases: log2 fold change, soluble protein after heating vs DMSO (PISA); higher = thermal stabilisation; K562 cells, 10 uM, 30 min; active = over 0.2 and 3.5 SD of the protein, either way, in both replicates (recomputed)
[1] = compound: COC1=CC=C(C=C1)CN2C=CC3=C2C=C(C=C3)C(=O)NO
How it was run: (§1)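 Soluble protein was quantified by TMTpro 16plex LC-MS/MS after channel sums were equalised. It was obtained as the supernatant after 21,000xg for 90 min from pooled aliquots of K562 cells (2×10^6 cells/mL, 10 μM compound, 30 min) heated for 3 min across 48°C-58°C and extracted in PBS with 0.5% NP-40 at 4°C. Thermal stability values are relative to control samples and come from duplicates. They are given as log2 fold changes.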

filanesib = compound: CON(C)C(=O)N1N=C(c2cc(F)ccc2F)S[C@@]1(CCCN)c1ccccc1 [filanesib]
How it was run: as §1

zotarolimus = compound: CO[C@H]1C[C@@H]2CC[C@@H](C)[C@@](O)(O2)C(=O)C(=O)N2CCCC[C@H]2C(=O)O[C@H]([C@H](C)C[C@@H]2CC[C@H](n3cnnn3)[C@H](OC)C2)CC(=O)[C@H](C)/C=C(\C)[C@@H](O)[C@@H](OC)C(=O)[C@H](C)C[C@H](C)/C=C/C=C/C=C/1C [zotarolimus]
How it was run: as §1

idasanutlin = compound: COc1cc(C(=O)O)ccc1NC(=O)[C@@H]1N[C@@H](CC(C)(C)C)[C@](C#N)(c2ccc(Cl)cc2F)[C@H]1c1cccc(Cl)c1F [idasanutlin]
How it was run: as §1

alisertib = compound: COc1cc(Nc2ncc3c(n2)-c2ccc(Cl)cc2C(c2c(F)cccc2OC)=NC3)ccc1C(=O)O [alisertib]
How it was run: as §1

[2] = compound: COc1cc2nc(-c3cc(F)ccc3O)nc(N[C@@H]3CNC[C@H]3C(C)(C)O)c2cc1OC
How it was run: as §1

gefitinib = compound: COc1cc2ncnc(Nc3ccc(F)c(Cl)c3)c2cc1OCCCN1CCOCC1 [gefitinib]
How it was run: as §1

[3] = compound: COc1cccc2cc(-c3nc([C@H]4CC[C@H](C(=O)O)CC4)n4ncnc(N)c34)[nH]c12
How it was run: as §1

lapatinib = compound: CS(=O)(=O)CCNCc1ccc(-c2ccc3ncnc(Nc4ccc(OCc5cccc(F)c5)c(Cl)c4)c3c2)o1 [lapatinib]
How it was run: as §1

pictilisib = compound: CS(=O)(=O)N1CCN(Cc2cc3nc(-c4cccc5[nH]ncc45)nc(N4CCOCC4)c3s2)CC1 [pictilisib]
How it was run: as §1

Measured: log2 fold change

SF3A3 (UniProt Q12874)
inactive: [1] -0.015 | filanesib 0.128 | zotarolimus 0.073 | idasanutlin 0.039 | alisertib -0.081 | [2] 0.154 | gefitinib 0.028 | [3] -0.064 | lapatinib -0.005 | pictilisib 0.009

SERGEF (UniProt Q9UGK8)
inactive: [1] -0.036 | filanesib -0.043 | zotarolimus 0.091 | idasanutlin -0.068 | alisertib -0.05 | [2] 0.083 | gefitinib -0.004 | [3] 0.015 | lapatinib -0.023 | pictilisib 0.086

SEC62 (UniProt Q99442)
inactive: [1] 0 | filanesib 0.039 | zotarolimus -0.008 | idasanutlin 0.03 | alisertib 0.015 | [2] 0.047 | gefitinib 0.015 | [3] -0.029 | lapatinib -0.042 | pictilisib 0.061

SELENOS (UniProt Q9BQE4)
inactive: [1] 0.044 | filanesib -0.002 | zotarolimus 0.02 | idasanutlin 0.04 | alisertib -0.06 | [2] -0.079 | gefitinib 0.53 | [3] 0.04 | lapatinib -0.064 | pictilisib -0.015

SHMT2 (UniProt P34897)
inactive: [1] 0.007 | filanesib -0.056 | zotarolimus -0.014 | idasanutlin -0.021 | alisertib -0.04 | [2] 0.016 | gefitinib 0.013 | [3] 0.043 | lapatinib -0.03 | pictilisib 0.019

SERPINB1 (UniProt P30740)
inactive: [1] -0.023 | filanesib -0.076 | zotarolimus 0.01 | idasanutlin -0.077 | alisertib -0.008 | [2] 0.016 | gefitinib -0.011 | [3] 0.032 | lapatinib -0.022 | pictilisib -0.017

SEPTIN2 isoform 2 (UniProt Q15019)
inactive: [1] -0.012 | filanesib 0.003 | zotarolimus -0.028 | idasanutlin -0.037 | alisertib -0.043 | [2] 0.031 | gefitinib -0.003 | [3] 0.067 | lapatinib -0.026 | pictilisib 0.018

SERPINF1 (UniProt P36955)
inactive: [1] -0.097 | filanesib 0.205 | zotarolimus -0.221 | idasanutlin 0.147 | alisertib 0.126 | [2] -0.062 | gefitinib 0.039 | [3] 0.016 | lapatinib 0.072 | pictilisib -0.077

SFXN4 (UniProt Q6P4A7)
inactive: [1] 0.045 | filanesib -0.035 | zotarolimus -0.031 | idasanutlin 0.006 | alisertib -0.062 | [2] 0 | gefitinib 0.022 | [3] 0.075 | lapatinib 0.008 | pictilisib -0.035

SH3BP5L (UniProt Q7L8J4)
inactive: [1] 0.003 | filanesib 0.287 | zotarolimus -0.011 | idasanutlin 0.008 | alisertib -0.004 | [2] -0.112 | gefitinib 0.028 | [3] 0.008 | lapatinib 0.017 | pictilisib 0.039

SGO1 (UniProt Q5FBB7)
inactive: [1] -0.084 | filanesib 0.066 | zotarolimus 0.005 | idasanutlin -0.018 | alisertib -0.034 | [2] 0.015 | gefitinib 0.031 | [3] 0 | lapatinib 0.017 | pictilisib -0.018

SEH1L isoform 1 (UniProt Q96EE3)
inactive: [1] -0.004 | filanesib 0.012 | zotarolimus -0.03 | idasanutlin -0.014 | alisertib -0.024 | [2] 0.025 | gefitinib 0.015 | [3] 0.038 | lapatinib -0.045 | pictilisib 0.017

SEPTIN9 (UniProt Q9UHD8)
inactive: [1] -0.035 | filanesib -0.015 | zotarolimus -0.012 | idasanutlin 0.002 | alisertib 0.013 | [2] 0.033 | gefitinib 0.007 | [3] 0.044 | lapatinib -0.038 | pictilisib 0.024

SINHCAF (UniProt Q9NP50)
inactive: [1] 0.595 | filanesib -0.94

SEPTIN4 isoform 4 (UniProt O43236)
inactive: [1] 0.764 | filanesib -0.058 | zotarolimus 0.116 | idasanutlin -0.279 | alisertib 0.181 | [2] -0.015 | gefitinib 0.055 | [3] 0.008 | lapatinib 0.03 | pictilisib 0.015

SGMS1 (UniProt Q86VZ5)
inactive: [1] -0.029 | filanesib -0.016 | zotarolimus -0.003 | idasanutlin -0.101 | alisertib 0.004 | [2] 0.051 | gefitinib 0.021 | [3] 0.038 | lapatinib 0 | pictilisib 0.038

SIRT2 (UniProt Q8IXJ6)
inactive: [1] 0.083 | filanesib -0.02 | zotarolimus -0.029 | idasanutlin 0.016 | alisertib 0.036 | [2] -0.012 | gefitinib 0.069 | [3] 0.017 | lapatinib 0.065 | pictilisib 0.168

SEPHS2 (UniProt Q99611)
inactive: [1] 0.046 | filanesib -0.055 | zotarolimus 0.023 | idasanutlin 0.004 | alisertib -0.067 | [2] -0.061 | gefitinib -0.024 | [3] 0.204 | lapatinib 0.057 | pictilisib -0.174

SEPTIN6 (UniProt Q14141)
inactive: [1] -0.011 | filanesib -0.032 | zotarolimus -0.032 | idasanutlin -0.047 | alisertib -0.097 | [2] 0.007 | gefitinib -0.017 | [3] -0.01 | lapatinib -0.007 | pictilisib -0.044

SIRT6 (UniProt Q8N6T7)
inactive: [1] 0.034 | filanesib 0.085 | zotarolimus -0.007 | idasanutlin 0.038 | alisertib -0.046 | [2] 0.004 | gefitinib 0.064 | [3] -0.08 | lapatinib -0.036 | pictilisib 0.036

SGPP1 (UniProt Q9BX95)
inactive: [1] -0.004 | filanesib -0.246 | zotarolimus -0.101 | idasanutlin -0.069 | alisertib 0.167 | [2] -0.276 | gefitinib 0.052 | [3] 0.151 | lapatinib 0.09 | pictilisib 0.04

SIRT5 (UniProt Q9NXA8)
inactive: [1] 0.225 | filanesib -0.049 | zotarolimus 0.072 | idasanutlin -0.063 | alisertib -0.02 | [2] 0.053 | gefitinib 0.06 | [3] -0.05 | lapatinib -0.02 | pictilisib 0.063

SIDT2 isoform 2 (UniProt Q8NBJ9)
inactive: [1] -0.062 | filanesib -0.08 | zotarolimus 0.127 | idasanutlin 0.01 | alisertib 0.082 | [2] -0.065 | gefitinib -0.207 | [3] 0.009 | lapatinib 0.004 | pictilisib 0.044

SFSWAP isoform 2 (UniProt Q12872)
inactive: [1] -0.004 | filanesib 0.139 | zotarolimus 0.158 | idasanutlin 0.106 | alisertib -0.139 | [2] -0.099 | gefitinib 0.057 | [3] -0.121 | lapatinib 0.134 | pictilisib 0.009

SHCBP1 (UniProt Q8NEM2)
inactive: [1] -0.014 | filanesib 0.059 | zotarolimus 0.103 | idasanutlin -0.023 | alisertib 0.134 | [2] 0.102 | gefitinib 0 | [3] -0.056 | lapatinib -0.13 | pictilisib -0.057

SEPTIN8 (UniProt Q92599)
inactive: [1] -0.044 | filanesib -0.068 | zotarolimus -0.022 | idasanutlin -0.064 | alisertib -0.078 | [2] 0.042 | gefitinib 0.002 | [3] 0.049 | lapatinib -0.005 | pictilisib 0.046

SF1 isoform 5 (UniProt Q15637)
inactive: [1] -0.002 | filanesib -0.014 | zotarolimus 0 | idasanutlin -0.001 | alisertib -0.081 | [2] -0.048 | gefitinib 0 | [3] 0.03 | lapatinib 0.041 | pictilisib -0.002

SEPTIN11 isoform 2 (UniProt Q9NVA2)
inactive: [1] 0.003 | filanesib -0.005 | zotarolimus -0.024 | idasanutlin -0.004 | alisertib -0.057 | [2] -0.006 | gefitinib 0.003 | [3] 0.039 | lapatinib -0.064 | pictilisib 0.045

SH3BGRL2 (UniProt Q9UJC5)
inactive: [1] -0.104 | filanesib -0.007 | zotarolimus -0.009 | idasanutlin 0.052 | alisertib -0.018 | [2] 0.04 | gefitinib -0.009 | [3] 0.052 | lapatinib 0.03 | pictilisib 0.086

2 consecutive entries already listed:
SF1 isoform 5 (UniProt Q15637)
inactive: [1] -0.002 | filanesib -0.014 | zotarolimus 0 | idasanutlin -0.001 | alisertib -0.081 | [2] -0.048 | gefitinib 0 | [3] 0.03 | lapatinib 0.041 | pictilisib -0.002

SEPTIN11 isoform 2 (UniProt Q9NVA2)
inactive: [1] 0.003 | filanesib -0.005 | zotarolimus -0.024 | idasanutlin -0.004 | alisertib -0.057 | [2] -0.006 | gefitinib 0.003 | [3] 0.039 | lapatinib -0.064 | pictilisib 0.045

Further records follow.

SEC61A1 (UniProt P61619)
inactive: [1] 0.002 | filanesib -0.044 | zotarolimus 0.01 | idasanutlin -0.064 | alisertib 0.061 | [2] 0.013 | gefitinib -0.007 | [3] 0.077 | lapatinib -0.074 | pictilisib 0.063
